Primary screen of a compound library

The chains behind the UniProt entries cited, without tags or fusion partners. Residues count along the entry.
UniProt A4I591, 1-473: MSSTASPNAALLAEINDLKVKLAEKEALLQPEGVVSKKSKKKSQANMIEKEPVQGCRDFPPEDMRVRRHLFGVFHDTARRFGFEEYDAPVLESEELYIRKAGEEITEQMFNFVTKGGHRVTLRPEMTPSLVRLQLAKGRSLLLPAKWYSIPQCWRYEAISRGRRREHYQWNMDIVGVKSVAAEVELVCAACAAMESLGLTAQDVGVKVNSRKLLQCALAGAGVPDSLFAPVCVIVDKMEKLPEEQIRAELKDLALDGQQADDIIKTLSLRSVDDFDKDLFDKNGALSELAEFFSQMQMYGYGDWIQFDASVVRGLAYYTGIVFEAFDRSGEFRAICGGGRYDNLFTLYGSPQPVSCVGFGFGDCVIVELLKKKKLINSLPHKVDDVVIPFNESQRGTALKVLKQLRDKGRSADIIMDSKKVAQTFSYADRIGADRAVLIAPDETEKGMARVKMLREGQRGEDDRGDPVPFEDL
UniProt P9WNZ1, whole entry: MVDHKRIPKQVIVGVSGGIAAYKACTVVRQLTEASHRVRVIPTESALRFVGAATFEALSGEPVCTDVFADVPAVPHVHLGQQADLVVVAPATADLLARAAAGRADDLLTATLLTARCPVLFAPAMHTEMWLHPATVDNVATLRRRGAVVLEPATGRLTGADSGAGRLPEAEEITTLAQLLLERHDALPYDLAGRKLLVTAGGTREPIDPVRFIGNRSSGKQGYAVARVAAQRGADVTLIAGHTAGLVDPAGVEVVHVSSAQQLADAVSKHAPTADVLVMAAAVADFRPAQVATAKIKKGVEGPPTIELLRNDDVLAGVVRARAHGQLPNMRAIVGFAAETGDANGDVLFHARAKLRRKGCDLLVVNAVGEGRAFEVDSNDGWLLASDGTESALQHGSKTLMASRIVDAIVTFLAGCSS

Results are given as percent effect. The record does not define 0% and 100%; most values in the screen are far below 50% and negative numbers occur (in some assays of this library far below -100). Compounds were drawn at random from those tested, without regard to their results. Two or more numbers in one place are separate tests of the same structure; such repeats can differ widely. A dash means the value is not listed here; it may have been measured.

LiHisRS: 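Histidine-tRNA ligase, Leishmania infantum (UniProt A4I591). Enzyme assay of histidyl-tRNA synthetase; the read-out is not stated. Compounds at 30 µM. Direction is inferred from retests: higher values go with stronger inhibition. The assay is labelled LdHisRS but filed under L. infantum. About 69,000 compounds were tested under these conditions; 0.6% (about 410) showed 50% or more at least once.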
Leishmania in macrophages: 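Cell assay of Leishmania donovani living inside macrophages; the read-out is not stated. Tested at 30 µM. Direction is inferred from retests: higher values go with stronger inhibition. About 69,000 compounds were tested under these conditions; 1.5% (about 1,000) showed 50% or more at least once.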
CoaBC: 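Coenzyme A biosynthesis protein CoaBC, Mycobacterium tuberculosis (UniProt P9WNZ1). Enzyme assay of CoaBC with a phosphate dye (Biomol Green) read at 650 nm. Compounds at 30 µM. Direction is inferred from only a few compounds that gave an IC50; most scored high, so higher reads as stronger inhibition. Most strong results did not repeat in a second test. About 67,000 compounds were tested under these conditions; 0.06% (about 40) showed 50% or more at least once.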

Compound | LiHisRS | Leishmania in macrophages | CoaBC
CCc1ccc(C2CCCCCN2Cc2nc(CCOC)no2)o1 (centres undefined) | 16.04 | 10.94 | 9.091
CN1Cc2cc(F)ccc2N(CC(O)C(F)(F)F)CCC1=O (centres undefined) | 12.24 | -4.058 | 1.937
Cc1cccc(N2CCC3(CCCN(C(=O)c4cccnc4)C3)CC2)n1.O=C(O)C(F)(F)F.O=C(O)C(F)(F)F | - | 31.26 | -
O=C(O)C(F)(F)F.[H][C@@]12CCN(Cc3cccc(C)n3)[C@@]1([H])CCN2C(=O)c1cc(C)oc1C | - | 19.64 | -
CSc1ccc(C(C(=O)O)N2CCCC2)cc1 (centres undefined) | 6.452 | 21.33 | -0.1233
O=C(Cc1ccccc1Cl)NCC1CCN(Cc2ccsc2)CC1 | 24.72 | 12.79 | 3.971
[H][C@]12CCN(Cc3ccncc3)C(=O)[C@]1([H])CN(CC)C2 | - | -9.595 | -
O=C1CCCN1CCCC(=O)N1CCCC(c2ccn[nH]2)C1 (centres undefined) | 2.069 | 16.75 | 0.618
COc1c(C)cnc(CN2CCCC2c2noc(C)n2)c1C (centres undefined) | 5.181 | -17.88 | -2.93
Cc1nnc(C(C)N(C)Cc2c(C)nn(-c3ccccc3)c2C)o1 (centres undefined) | 5.479 | 15.94 | 7.579
[H][C@@]12CNC[C@]1([H])CN(C(=O)c1ccc(S(=O)(=O)NCC(F)F)cc1)C2 | - | 3.79 | -
CS(=O)(=O)NCCNC(=O)c1cnc(-c2ccccc2)nc1 | 13.11 | 2.909 | 8.584
O=C(O)C(F)(F)F.O=C(c1cnccn1)N1CCC(F)(F)C2(CCN(c3ccccn3)C2)C1 (centres undefined) | - | 9.486 and 8.933 | -
Cn1cccc1CN1CCC2(CCCN(C(=O)c3cccnc3)C2)CC1.O=C(O)C(F)(F)F.O=C(O)C(F)(F)F | - | 8.678 | -
COc1cccc(NC(=O)NC2(c3noc(CN(C)C)n3)CCCC2)c1 | -2.041 | 0.3737 | 0.6889
Cn1cc(C(=O)NC2CCN(Cc3ccn(C)c(=O)c3)CC2)cn1 | 2.128 | 13.95 | 4.145
CC(C)NC(=O)C1c2c(ncn2C(C)C)CCN1Cc1ccccc1.O=C(O)C(F)(F)F (centres undefined) | - | -1.816 | -
O=S1(=O)N=C(CSCc2ccccc2)Nc2ccccc21 | 17.12 | 0.5714 | 1.946
CC(C)(C)c1cc(C[C@H]2CNCC[C@H]2CC(=O)NC2CCCCC2)no1 | 13.89 | 17.96 | -24.19
CS(=O)(=O)N1CCOCC2(CN(Cc3ccccn3)CCO2)C1.O=C(O)C(F)(F)F.O=C(O)C(F)(F)F (centres undefined) | - | 17.2 | -
Cc1cc(C)c2nc(CN3CCC(C#N)CC3)cc(O)c2c1 | 2.778 | -6.672 | 3.968
Cc1cc(CC(=O)N(C)Cc2cccc(OC(C)C)c2)n[nH]1 | -0.8929 | 13.89 | 5.159
CN(C)c1cc(CNC(=O)c2cc(Cl)ccn2)ccn1 | 7.965 | 32.57 | 2.611
CC(C)n1ncc2cc(NC(=O)N3CCC(CO)CC3)cnc21 | 10.91 | 25.94 | -0.7653
COc1cccc(S(=O)(=O)NC(=O)CC2CCCC2)c1 | 12.68 | -24.68 | -
c1coc(CN2CCCn3c(nnc3Cn3cccc3)C2)c1 | 1.887 | - | 3.659
O=C(c1ccsc1)N1CCN2C[C@H](OCc3ccccn3)C[C@H]2C1 | 22 | - | 6
c1ccc(COCCN2CCc3[nH]cnc3C2c2ccco2)cc1 (centres undefined) | 11.11 | 3.521 | 2.696
CC(=O)N1CC2(CCN(C(=O)c3cccc4[nH]ccc34)CC2)C1 | 7.071 | 19.2 | 1.691
Clc1snnc1CN1CCCC(Cn2cncn2)C1 (centres undefined) | -12.36 | -7.172 | 4.884
O=C(Nc1cnccn1)[C@H]1CC[C@@H]2[C@@H](CCN2Cc2ccoc2)O1 | 11.11 | - | -7.407
Cc1ccc(-c2nnc(C3CCCN3S(=O)(=O)c3cnn(C)c3C)o2)s1 (centres undefined) | 4.317 | 30.77 | -5.742
CC(=O)N1CCC[C@@H](NCc2ccc(F)cc2)[C@@H]1c1ccc(C)s1 | 10.34 | 11.55 | 1.112
Cc1nc(CN2CCC(CNC(=O)C3CCOC3)CC2)oc1C (centres undefined) | 11.48 | -21.76 | 11.16
CC(C)CC(=O)N1C[C@@H]2CCN(c3cnccn3)C[C@@H]2C1 | 21.1 | - | 7.765
Cn1c(C2CC2)nc2c1CCN(CCOc1ccc(C#N)cc1)C2 | 21.92 | 24.12 | -0.241
COCCOC(=O)N1CCn2nc(CN(C)Cc3nccs3)cc2C1 | 13.99 | 9.39 | 7.901
O=C(O)CC1COCCN1CCCc1ccccc1 (centres undefined) | 17.24 | 28.61 | 4.251
Cc1ccc(CN(CCCn2ccnc2)Cc2cnc(N(C)C)nc2)s1 | 15.79 | - | 5.109
CN1CCN2CCN(C(=O)c3cnn4cc(CCO)cnc34)CC2C1 (centres undefined) | 9.211 | 18.53 | -1.29
COc1ccc(C(=O)N2C[C@@H](c3ccccc3)[C@@H]3NCCCC[C@@H]32)cc1 | 11.72 | - | 6.304
CC(C)(O)c1cc(CC2(NCc3ccco3)COC2)no1 | 20.27 | 28.33 | 13.47
COCC(=O)N1CCCCC1c1nccc(C)n1 (centres undefined) | 14 | -7.339 | 3.098
Cn1nc(CNC(=O)C2CC2)cc1C1CC1 | 8.738 | -4.15 | -0.8872
CSc1ccccc1C(=O)N(C)C1CCCN(CCc2ccccc2)C1 (centres undefined) | 4.918 | -37.33 | -3.863
[H][C@@]12CN(C(=O)N3CCOCC3)C[C@@]1([H])N(CC(C)C)C(=O)CO2 | - | -5.994 and 7.187 | -
Cc1nn(C(C)C)c2cnn(CC(=O)N3CCSCC3)c12 | 9.735 | -13.89 | -4.907
CC1CCCCN1c1nc2c(c(=O)[nH]1)CCN(Cc1ccccn1)C2 (centres undefined) | -18.84 | -5.138 and 0.5269 | -0.7282
CN(Cc1ccco1)C1CCC12CCN(C(=O)N1CCCC1)CC2.O=C(O)C(F)(F)F (centres undefined) | - | 1.457 | -
Cc1nc(-c2nnc[nH]2)sc1C(=O)N1CCCC1c1cccs1 (centres undefined) | 24.29 | 13.98 | -3.893
Cc1ccc(NCCCNC(=O)C2CCCN(Cc3ccco3)C2)nc1 (centres undefined) | 6.25 | -17.24 | -1.028
CC(CO)NC(=O)Nc1ccc(CC#N)cc1 (centres undefined) | 3.922 | 14.22 | -1.84
CCn1nc2c(cc1=O)CN(CCOc1ccccc1C#N)CC2 | -5 | -7.266 | -0.8861
CCC[C@H]1CN(C2CCOCC2)C[C@@H]1NC(=O)CCc1cnccn1 | 3.947 | -22.62 | 5.161
COc1cccc(CC2CN(C3CCCCC3)CCO2)c1 (centres undefined) | 22.35 | 11.04 | 1.777
Cn1ccc(C(=O)N2CCCCC2c2cc(CCO)[nH]n2)n1 (centres undefined) | 2.797 | 19.84 | 0.2421
CCOCC1CN(C(=O)c2ccncc2)Cc2nn(C)cc21 (centres undefined) | 11.32 | - | 2.157
CC(C)CN1CCCC2(CCN(c3ccc(C#N)cn3)C2)C1.O=C(O)C(F)(F)F (centres undefined) | - | 25.7 | -
O=C(Nc1cccnc1)C1CN(C(=O)c2ccc3c(c2)OCO3)C1 | 28.57 | -57.21 | 1.277
O=C(O)c1cccc(CN2CCC(c3ccnc4ccnn34)CC2)c1 | 3.448 | 20.32 | 3.337
O=C(NCCc1nccs1)N1CCC(n2cccc2)CC1 | 4.145 | 1.944 | 2.93
O=C(CC1CCCC1)N1CCOC(c2nc(-c3ncccn3)no2)C1 (centres undefined) | 17.71 | 6.346 | -1.225
NC(=O)CN1CCCCC1c1nc(N)ncc1-c1cccc(F)c1 (centres undefined) | 14 | 2.431 | 6.072
CCC(=O)Nc1ccc(F)cc1OC | 7.752 | -57.17 | 1.351
FC1(F)CCN(Cc2cccnc2)CC12CCN(c1cnccn1)C2.O=C(O)C(F)(F)F.O=C(O)C(F)(F)F.O=C(O)C(F)(F)F (centres undefined) | - | 0.5689 | -
Cc1cc(NC(=O)CN2CCCC(Cn3nc(C)nc3C)C2)n(C)n1 (centres undefined) | 1.835 | 5.466 | 1.535
CCn1cnnc1CNC(=O)N(C)Cc1c(F)cccc1Cl | 14.29 | 30.72 | 6.013
[H][C@]12CC[C@]([H])(CN(Cc3ccccc3)C1)N(C(=O)CNC(N)=O)C2 | - | 14 | -
Cc1ccc(C(=O)NS(=O)(=O)c2c(Cl)cccc2Cl)c(=O)[nH]1 | 0 | -12 | 2.296
COc1c(C)cnc(CN(C)C(=O)c2cccc(NC(N)=O)c2)c1C | 12.9 | 15.86 | -3.686
Cc1noc(C)c1CN1CCCCC1CCc1ccc(O)cc1 (centres undefined) | 15.04 | 39.55 | 0.6369
O=C(c1cccnc1)N1CCC(c2nc(O)cc(-c3ccncc3)n2)C1 (centres undefined) | 11.46 | 11.53 | 1.225
COc1c(CNCCNC(=O)c2cccs2)c(C)nn1C | 9.091 | 13.84 | 4.847
c1ccc(CCCN2CC[C@H](c3nnc(-c4ccccc4)o3)C2)cc1 | 11.11 | 33.85 | 9.707

6 of the entries, repeated:

Compound,LiHisRS,Leishmania in macrophages,CoaBC
c1ccc(COCCN2CCc3[nH]cnc3C2c2ccco2)cc1 (centres undefined),11.11,3.521,2.696
CC(=O)N1CC2(CCN(C(=O)c3cccc4[nH]ccc34)CC2)C1,7.071,19.2,1.691
Cc1cccc(N2CCC3(CCCN(C(=O)c4cccnc4)C3)CC2)n1.O=C(O)C(F)(F)F.O=C(O)C(F)(F)F,-,31.26,-
COc1cccc(CC2CN(C3CCCCC3)CCO2)c1 (centres undefined),22.35,11.04,1.777
Cc1nn(C(C)C)c2cnn(CC(=O)N3CCSCC3)c12,9.735,-13.89,-4.907
O=C(Cc1ccccc1Cl)NCC1CCN(Cc2ccsc2)CC1,24.72,12.79,3.971

Data taken from ChEMBL document CHEMBL3988442, “University of Dundee, Small-Polar-MMV Screening Library” (2021).